According to the supplement of paper PMC10849652:
The other results are listed elsewhere or left out.

Protein sequences, listed by entry. Tags and fused reporters are not part of them. Lines headed by an entry give the natural chain unless they say otherwise; changes in a name come on top.
UniProt Q01469, whole entry, looked up: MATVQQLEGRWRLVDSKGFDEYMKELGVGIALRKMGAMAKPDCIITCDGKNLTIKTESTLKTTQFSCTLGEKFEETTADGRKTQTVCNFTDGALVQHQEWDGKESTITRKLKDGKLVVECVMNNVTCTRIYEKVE
UniProt Q01780: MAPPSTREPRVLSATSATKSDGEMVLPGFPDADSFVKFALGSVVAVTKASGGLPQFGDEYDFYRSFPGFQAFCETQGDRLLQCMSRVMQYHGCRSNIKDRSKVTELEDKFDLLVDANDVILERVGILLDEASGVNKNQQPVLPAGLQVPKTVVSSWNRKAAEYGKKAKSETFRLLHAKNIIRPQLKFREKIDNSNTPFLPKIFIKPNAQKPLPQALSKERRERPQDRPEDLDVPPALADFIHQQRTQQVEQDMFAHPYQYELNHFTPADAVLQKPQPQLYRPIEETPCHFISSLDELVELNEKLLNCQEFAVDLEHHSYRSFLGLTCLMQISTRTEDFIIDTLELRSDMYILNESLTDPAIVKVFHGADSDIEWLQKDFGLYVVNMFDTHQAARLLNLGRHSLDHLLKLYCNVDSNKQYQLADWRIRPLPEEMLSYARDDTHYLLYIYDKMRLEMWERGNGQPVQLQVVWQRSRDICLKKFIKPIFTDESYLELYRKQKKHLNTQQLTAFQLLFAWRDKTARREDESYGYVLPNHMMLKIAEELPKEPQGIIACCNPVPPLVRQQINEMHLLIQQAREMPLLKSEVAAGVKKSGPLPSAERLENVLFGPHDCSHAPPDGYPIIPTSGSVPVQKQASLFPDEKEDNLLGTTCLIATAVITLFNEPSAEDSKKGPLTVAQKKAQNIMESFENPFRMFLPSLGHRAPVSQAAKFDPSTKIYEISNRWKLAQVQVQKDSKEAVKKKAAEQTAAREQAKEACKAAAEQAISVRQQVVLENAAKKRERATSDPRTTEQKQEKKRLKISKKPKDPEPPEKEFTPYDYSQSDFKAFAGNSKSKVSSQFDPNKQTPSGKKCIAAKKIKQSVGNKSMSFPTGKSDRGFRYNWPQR
UniProt Q6P587: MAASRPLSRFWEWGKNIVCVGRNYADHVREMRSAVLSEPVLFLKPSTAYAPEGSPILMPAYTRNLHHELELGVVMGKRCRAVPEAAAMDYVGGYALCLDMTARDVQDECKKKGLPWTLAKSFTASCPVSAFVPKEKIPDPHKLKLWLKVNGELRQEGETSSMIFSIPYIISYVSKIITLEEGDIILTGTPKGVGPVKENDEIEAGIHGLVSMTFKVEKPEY
UniProt Q9NPD3, whole entry, looked up: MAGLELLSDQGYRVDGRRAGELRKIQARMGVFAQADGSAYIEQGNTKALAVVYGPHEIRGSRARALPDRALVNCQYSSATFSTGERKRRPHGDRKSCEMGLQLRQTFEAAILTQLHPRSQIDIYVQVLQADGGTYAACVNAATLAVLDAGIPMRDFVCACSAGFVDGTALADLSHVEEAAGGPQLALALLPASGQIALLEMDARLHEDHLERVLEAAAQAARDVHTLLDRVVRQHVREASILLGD
UniProt Q96CS3: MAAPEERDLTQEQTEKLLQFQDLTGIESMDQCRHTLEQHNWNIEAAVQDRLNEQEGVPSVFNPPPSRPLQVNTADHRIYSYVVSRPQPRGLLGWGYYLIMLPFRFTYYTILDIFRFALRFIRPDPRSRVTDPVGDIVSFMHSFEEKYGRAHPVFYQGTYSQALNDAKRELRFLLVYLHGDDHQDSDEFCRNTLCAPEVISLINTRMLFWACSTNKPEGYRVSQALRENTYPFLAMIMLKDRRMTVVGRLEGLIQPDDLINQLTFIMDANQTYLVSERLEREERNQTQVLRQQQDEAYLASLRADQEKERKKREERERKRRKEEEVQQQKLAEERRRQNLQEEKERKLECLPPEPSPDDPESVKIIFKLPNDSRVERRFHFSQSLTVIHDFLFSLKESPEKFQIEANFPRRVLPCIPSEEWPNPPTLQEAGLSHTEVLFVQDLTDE
UniProt Q96DF8: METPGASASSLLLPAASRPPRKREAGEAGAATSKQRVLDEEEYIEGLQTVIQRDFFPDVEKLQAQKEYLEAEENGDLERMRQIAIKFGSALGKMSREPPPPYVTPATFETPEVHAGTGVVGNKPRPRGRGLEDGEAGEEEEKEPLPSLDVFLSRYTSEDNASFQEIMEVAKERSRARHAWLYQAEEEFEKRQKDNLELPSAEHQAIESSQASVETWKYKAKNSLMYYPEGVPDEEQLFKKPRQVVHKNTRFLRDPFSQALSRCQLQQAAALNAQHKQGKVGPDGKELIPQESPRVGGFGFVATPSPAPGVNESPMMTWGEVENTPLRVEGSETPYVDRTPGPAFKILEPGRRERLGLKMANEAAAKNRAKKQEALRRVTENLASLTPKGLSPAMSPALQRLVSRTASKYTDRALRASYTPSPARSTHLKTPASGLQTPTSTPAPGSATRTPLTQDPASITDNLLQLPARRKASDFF
UniProt Q9NZ08: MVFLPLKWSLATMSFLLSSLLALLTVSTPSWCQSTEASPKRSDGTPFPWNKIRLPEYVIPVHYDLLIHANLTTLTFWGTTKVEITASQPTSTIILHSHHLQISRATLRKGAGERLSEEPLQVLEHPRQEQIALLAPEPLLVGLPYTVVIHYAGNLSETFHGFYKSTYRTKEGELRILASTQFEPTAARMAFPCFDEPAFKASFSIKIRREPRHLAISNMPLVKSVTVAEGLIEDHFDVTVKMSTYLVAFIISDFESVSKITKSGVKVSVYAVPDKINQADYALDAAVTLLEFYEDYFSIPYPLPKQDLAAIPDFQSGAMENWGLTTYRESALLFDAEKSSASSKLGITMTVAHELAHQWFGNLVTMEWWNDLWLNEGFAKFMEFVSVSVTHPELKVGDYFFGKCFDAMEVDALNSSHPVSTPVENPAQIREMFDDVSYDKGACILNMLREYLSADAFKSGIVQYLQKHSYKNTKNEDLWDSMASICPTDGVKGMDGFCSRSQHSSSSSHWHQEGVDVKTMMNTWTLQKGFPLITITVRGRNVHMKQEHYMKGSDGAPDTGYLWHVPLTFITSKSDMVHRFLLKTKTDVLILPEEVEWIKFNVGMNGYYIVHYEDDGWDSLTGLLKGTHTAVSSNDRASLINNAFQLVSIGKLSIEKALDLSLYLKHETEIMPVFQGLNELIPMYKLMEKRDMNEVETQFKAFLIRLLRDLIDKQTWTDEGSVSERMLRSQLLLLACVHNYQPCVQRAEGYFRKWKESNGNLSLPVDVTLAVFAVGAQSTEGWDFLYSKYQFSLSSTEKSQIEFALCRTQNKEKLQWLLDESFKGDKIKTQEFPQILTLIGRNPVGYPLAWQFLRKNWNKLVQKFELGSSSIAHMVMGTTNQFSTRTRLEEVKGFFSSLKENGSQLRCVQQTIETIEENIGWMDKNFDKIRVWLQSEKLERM
UniProt Q9UNN5: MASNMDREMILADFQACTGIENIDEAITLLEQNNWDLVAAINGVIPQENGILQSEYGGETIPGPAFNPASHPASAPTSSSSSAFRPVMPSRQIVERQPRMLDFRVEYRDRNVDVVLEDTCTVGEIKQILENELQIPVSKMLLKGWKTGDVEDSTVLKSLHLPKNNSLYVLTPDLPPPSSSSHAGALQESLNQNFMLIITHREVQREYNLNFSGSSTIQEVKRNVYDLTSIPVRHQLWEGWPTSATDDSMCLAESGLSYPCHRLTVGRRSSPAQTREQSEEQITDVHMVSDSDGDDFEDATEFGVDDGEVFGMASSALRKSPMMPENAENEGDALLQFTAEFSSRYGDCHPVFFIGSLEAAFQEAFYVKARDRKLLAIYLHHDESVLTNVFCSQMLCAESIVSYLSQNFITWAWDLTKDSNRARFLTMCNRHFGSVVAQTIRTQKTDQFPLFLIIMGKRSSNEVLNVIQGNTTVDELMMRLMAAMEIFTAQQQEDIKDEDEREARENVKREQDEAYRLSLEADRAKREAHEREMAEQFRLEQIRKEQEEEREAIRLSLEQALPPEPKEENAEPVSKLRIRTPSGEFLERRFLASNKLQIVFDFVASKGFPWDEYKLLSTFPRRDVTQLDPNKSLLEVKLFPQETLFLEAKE
UniProt Q96KP1: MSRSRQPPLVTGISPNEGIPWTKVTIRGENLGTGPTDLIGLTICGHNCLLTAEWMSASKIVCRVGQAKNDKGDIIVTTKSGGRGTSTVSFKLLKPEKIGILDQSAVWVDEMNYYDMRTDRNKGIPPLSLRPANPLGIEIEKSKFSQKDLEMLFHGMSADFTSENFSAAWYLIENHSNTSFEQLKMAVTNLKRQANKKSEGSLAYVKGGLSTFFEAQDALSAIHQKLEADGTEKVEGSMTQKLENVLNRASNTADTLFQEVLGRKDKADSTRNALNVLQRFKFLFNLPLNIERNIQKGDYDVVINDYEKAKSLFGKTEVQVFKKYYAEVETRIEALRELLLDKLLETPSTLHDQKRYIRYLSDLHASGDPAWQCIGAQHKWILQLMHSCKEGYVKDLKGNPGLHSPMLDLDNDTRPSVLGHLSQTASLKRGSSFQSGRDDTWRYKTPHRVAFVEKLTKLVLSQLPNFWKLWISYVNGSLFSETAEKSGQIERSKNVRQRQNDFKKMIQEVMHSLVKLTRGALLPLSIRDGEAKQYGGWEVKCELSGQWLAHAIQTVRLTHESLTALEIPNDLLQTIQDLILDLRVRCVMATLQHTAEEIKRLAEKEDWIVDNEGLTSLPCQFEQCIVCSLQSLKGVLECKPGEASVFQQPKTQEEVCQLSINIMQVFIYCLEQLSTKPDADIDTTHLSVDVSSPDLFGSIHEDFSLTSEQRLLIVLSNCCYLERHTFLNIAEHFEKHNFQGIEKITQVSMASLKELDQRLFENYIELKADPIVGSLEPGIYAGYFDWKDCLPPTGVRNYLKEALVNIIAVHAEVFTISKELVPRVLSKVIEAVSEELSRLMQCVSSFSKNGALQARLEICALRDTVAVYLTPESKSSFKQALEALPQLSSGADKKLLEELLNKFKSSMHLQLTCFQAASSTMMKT
UniProt Q15024, whole entry, looked up: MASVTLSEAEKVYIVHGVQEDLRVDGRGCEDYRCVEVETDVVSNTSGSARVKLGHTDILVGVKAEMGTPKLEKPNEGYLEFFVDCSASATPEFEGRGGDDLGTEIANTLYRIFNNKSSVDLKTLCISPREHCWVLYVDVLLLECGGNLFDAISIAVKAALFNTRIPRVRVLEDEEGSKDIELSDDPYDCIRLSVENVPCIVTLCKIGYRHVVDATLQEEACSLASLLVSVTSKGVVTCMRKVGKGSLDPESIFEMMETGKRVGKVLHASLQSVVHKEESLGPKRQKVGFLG
UniProt P15311, whole entry, looked up: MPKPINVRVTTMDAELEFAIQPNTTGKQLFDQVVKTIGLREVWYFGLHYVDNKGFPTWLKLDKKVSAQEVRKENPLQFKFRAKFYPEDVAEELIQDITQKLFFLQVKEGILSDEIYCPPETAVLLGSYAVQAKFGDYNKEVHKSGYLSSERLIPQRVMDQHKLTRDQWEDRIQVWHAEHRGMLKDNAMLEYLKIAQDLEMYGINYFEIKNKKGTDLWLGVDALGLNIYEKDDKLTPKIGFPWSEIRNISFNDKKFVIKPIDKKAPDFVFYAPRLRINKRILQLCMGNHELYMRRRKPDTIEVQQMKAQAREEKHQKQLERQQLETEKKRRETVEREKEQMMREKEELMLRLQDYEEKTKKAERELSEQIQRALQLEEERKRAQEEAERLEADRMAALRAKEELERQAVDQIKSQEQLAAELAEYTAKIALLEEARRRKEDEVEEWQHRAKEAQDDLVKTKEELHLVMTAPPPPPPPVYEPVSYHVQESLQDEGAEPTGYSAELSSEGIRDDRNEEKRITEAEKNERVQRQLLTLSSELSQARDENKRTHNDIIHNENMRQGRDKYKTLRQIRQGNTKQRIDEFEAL
UniProt Q9Y624, whole entry, looked up, stated change not applied: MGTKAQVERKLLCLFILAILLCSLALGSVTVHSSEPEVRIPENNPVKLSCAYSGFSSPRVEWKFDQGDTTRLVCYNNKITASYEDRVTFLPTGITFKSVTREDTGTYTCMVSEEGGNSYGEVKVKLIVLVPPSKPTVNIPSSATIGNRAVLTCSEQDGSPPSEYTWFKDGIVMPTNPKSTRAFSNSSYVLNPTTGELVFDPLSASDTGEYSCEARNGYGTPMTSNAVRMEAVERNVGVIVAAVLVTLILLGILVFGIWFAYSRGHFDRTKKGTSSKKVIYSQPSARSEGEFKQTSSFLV
UniProt O75063: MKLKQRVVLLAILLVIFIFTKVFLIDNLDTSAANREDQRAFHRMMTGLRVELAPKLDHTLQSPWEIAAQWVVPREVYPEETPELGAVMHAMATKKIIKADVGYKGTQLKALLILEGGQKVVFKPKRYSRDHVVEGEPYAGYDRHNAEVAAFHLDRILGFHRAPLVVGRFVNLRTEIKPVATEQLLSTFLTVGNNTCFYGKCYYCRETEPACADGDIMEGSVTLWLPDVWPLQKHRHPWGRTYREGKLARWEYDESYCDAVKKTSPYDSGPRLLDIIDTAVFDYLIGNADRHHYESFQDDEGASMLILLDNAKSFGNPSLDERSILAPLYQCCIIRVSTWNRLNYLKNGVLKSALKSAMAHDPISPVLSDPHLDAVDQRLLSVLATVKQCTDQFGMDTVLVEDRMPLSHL

Columns and labels:
Experiment in all cases: log2 fold change, soluble protein after heating vs DMSO (PISA); higher = thermal stabilisation; K562 cells, 10 uM, 30 min; active = over 0.2 and 3.5 SD of the protein, either way, in both replicates (recomputed)
[1] = compound: NC(=O)Nc1cc(-c2cccc(F)c2)sc1C(=O)N[C@H]1CCCNC1
In short: (§1)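 K562 cells at 2×10^6 cells/mL were given 10 μM compound for 30 min. Aliquots then went through 3 min of heating across 48°C-58°C, were pooled, and were extracted in PBS with 0.5% NP-40 at 4°C, and the supernatant after 21,000xg for 90 min was quantified by TMTpro 16plex LC-MS/MS with channel sums equalised. Thermal stability relative to control samples, from duplicates, is given as log2 fold change.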

[2] = compound: NC(=O)c1cnc(N[C@@H]2CCCC[C@@H]2N)nc1Nc1cccc(-n2nccn2)c1
In short: as §1

[3] = compound: NC1(c2ccc(-c3nc4ccn5c(=O)[nH]nc5c4cc3-c3ccccc3)cc2)CCC1
In short: as §1

[4] = compound: NCC(=O)Nc1ccc(-n2nc(C(F)(F)F)cc2-c2ccc3c(ccc4ccccc43)c2)cc1
In short: as §1

entinostat = compound: Nc1ccccc1NC(=O)c1ccc(CNC(=O)OCc2cccnc2)cc1 [entinostat]
In short: as §1

vorinostat = compound: O=C(CCCCCCC(=O)Nc1ccccc1)NO [vorinostat]
In short: as §1

citarinostat = compound: O=C(CCCCCCNC(=O)c1cnc(N(c2ccccc2)c2ccccc2Cl)nc1)NO [citarinostat]
In short: as §1

silmitasertib = compound: O=C(O)c1ccc2c(c1)nc(Nc1cccc(Cl)c1)c1ccncc12 [silmitasertib]
In short: as §1

[5] = compound: O=C1NC(=O)C(c2cnc3ccccn23)=C1c1cn2c3c(cc(F)cc13)CN(C(=O)N1CCCCC1)CC2
In short: as §1

[6] = compound: c1cc(OCCN2CCCCC2)cc(-c2n[nH]c3ccc(-c4nnc[nH]4)cc23)c1
In short: as §1

Measured: log2 fold change

ETFA (UniProt P13804)
inactive: [1] -0.077 | [2] -0.044 | [3] -0.032 | [4] -0.007 | entinostat -0.029 | vorinostat 0.001 | citarinostat 0.021 | silmitasertib 0.007 | [5] -0.014 | [6] -0.026

FABP5 (UniProt Q01469)
inactive: [1] 0.016 | [2] 0.125 | [3] 0.045 | [4] 0.23 | entinostat 0.005 | vorinostat -0.042 | citarinostat -0.012 | silmitasertib 0.009 | [5] -0.036 | [6] -0.001

EXOSC6 (UniProt Q5RKV6)
inactive: [1] 0.055 | [2] 0.049 | [3] 0.054 | [4] 0.097 | entinostat -0.035 | vorinostat -0.04 | citarinostat 0.015 | silmitasertib -0.021 | [5] 0.087 | [6] -0.007

FAM118B (UniProt Q9BPY3)
active: [3] -0.381
inactive: [1] -0.034 | [2] -0.118 | [4] -0.027 | entinostat 0.047 | vorinostat 0.064 | citarinostat 0.052 | silmitasertib -0.082 | [5] -0.13 | [6] -0.078

ERCC5 (UniProt P28715)
inactive: [1] 0.033 | [2] 0.025 | [3] -0.33 | [4] 0.046 | entinostat -0.017 | vorinostat 0.078 | citarinostat -0.066 | silmitasertib -0.176 | [5] 0.027 | [6] -0.141

FAM136A (UniProt Q96C01)
inactive: [1] -0.014 | [2] 0.007 | [3] -0.028 | [4] -0.009 | entinostat 0.025 | vorinostat -0.023 | citarinostat 0.067 | silmitasertib 0.013 | [5] -0.022 | [6] 0.019

EXOC8 (UniProt Q8IYI6)
active: [3] -0.373
inactive: [1] 0.044 | [2] -0.044 | [4] -0.039 | entinostat 0.108 | vorinostat 0.051 | citarinostat 0.084 | silmitasertib 0.035 | [5] 0.045 | [6] -0.062

EXOSC10 (UniProt Q01780)
inactive: [1] -0.49 | [2] -0.054 | [3] 0.014 | [4] -0.189 | entinostat -0.339 | vorinostat 0.039 | citarinostat -0.125 | silmitasertib 0.041 | [5] -0.044 | [6] 0.01

FAM207A (UniProt Q9NSI2)
inactive: [1] -0.005 | [2] 0.076 | [3] -0.165 | [4] -0.042 | entinostat 0.052 | vorinostat 0.015 | citarinostat 0.106 | silmitasertib 0.356 | [5] 0.099 | [6] -0.117

FAHD1 (UniProt Q6P587)
inactive: [1] -0.008 | [2] -0.006 | [3] 0 | [4] 0.026 | entinostat -0.043 | vorinostat -0.044 | citarinostat 0.031 | silmitasertib 0.028 | [5] -0.076 | [6] 0.008

EVC2 (UniProt Q86UK5)
inactive: [1] -0.074 | [2] -0.129 | [3] 0.013 | [4] -0.268 | entinostat 0.004 | vorinostat -0.071 | citarinostat 0.024 | silmitasertib -0.042 | [5] 0.024 | [6] -0.114

EPS15 (UniProt P42566)
inactive: [1] -0.015 | [2] -0.074 | [3] -0.154 | [4] -0.09 | entinostat 0.067 | vorinostat 0.019 | citarinostat 0.042 | silmitasertib 0.082 | [5] -0.018 | [6] -0.007

EXOSC4 (UniProt Q9NPD3)
inactive: [1] 0.125 | [2] 0.004 | [3] 0.023 | [4] 0.153 | entinostat 0.017 | vorinostat 0.03 | citarinostat 0.011 | silmitasertib -0.038 | [5] 0.037 | [6] -0.025

FAF2 (UniProt Q96CS3)
inactive: [1] -0.016 | [2] -0.038 | [3] -0.038 | [4] -0.027 | entinostat 0.021 | vorinostat 0.092 | citarinostat 0.015 | silmitasertib 0.007 | [5] -0.054 | [6] -0.018

ESS2 (UniProt Q96DF8)
inactive: [1] 0.036 | [2] 0.048 | [3] -0.078 | [4] 0.069 | entinostat -0.027 | vorinostat -0.012 | citarinostat 0.014 | silmitasertib 0.04 | [5] 0.033 | [6] -0.017

FAH isoform 2 (UniProt P16930)
inactive: [1] -0.006 | [2] -0.128 | [3] -0.089 | [4] -0.193 | entinostat -0.02 | vorinostat -0.023 | citarinostat -0.091 | silmitasertib 0.074 | [5] 0.031 | [6] -0.06

F2 (UniProt P00734)
inactive: [1] -0.043 | [2] -0.118 | [3] 0.09 | [4] -0.015 | entinostat -0.031 | vorinostat 0.205 | citarinostat -0.02 | silmitasertib 0.19 | [5] 0.064 | [6] 0.173

EXOC1 (UniProt Q9NV70)
inactive: [1] 0.043 | [2] -0.162 | [3] -0.228 | [4] -0.065 | entinostat 0.062 | vorinostat 0.082 | citarinostat 0.014 | silmitasertib 0.127 | [5] 0.069 | [6] -0.165

ERAP1 isoform 2 (UniProt Q9NZ08)
inactive: [1] -0.003 | [2] 0.006 | [3] -0.088 | [4] 0.035 | entinostat -0.013 | vorinostat -0.01 | citarinostat 0.024 | silmitasertib 0.008 | [5] 0.033 | [6] -0.09

ERC1 (UniProt Q8IUD2)
inactive: [1] -0.087 | [2] -0.209 | [3] 0.166 | [4] -0.001 | entinostat -0.016 | vorinostat -0.078 | citarinostat 0.034 | silmitasertib -0.11 | [5] -0.04 | [6] 0.038

2 entries picked at random from the list so far:
ERC1 (UniProt Q8IUD2)
inactive: [1] -0.087 | [2] -0.209 | [3] 0.166 | [4] -0.001 | entinostat -0.016 | vorinostat -0.078 | citarinostat 0.034 | silmitasertib -0.11 | [5] -0.04 | [6] 0.038

ERAP1 isoform 2 (UniProt Q9NZ08)
inactive: [1] -0.003 | [2] 0.006 | [3] -0.088 | [4] 0.035 | entinostat -0.013 | vorinostat -0.01 | citarinostat 0.024 | silmitasertib 0.008 | [5] 0.033 | [6] -0.09

Following part.

FAF1 (UniProt Q9UNN5)
inactive: [1] 0.015 | [2] -0.063 | [3] -0.049 | [4] 0.001 | entinostat -0.009 | vorinostat 0.009 | citarinostat 0.029 | silmitasertib 0.009 | [5] -0.044 | [6] -0.013

ESYT2 isoform 2 (UniProt A0FGR8)
inactive: [1] -0.106 | [2] -0.069 | [3] -0.126 | [4] -0.083 | entinostat -0.002 | vorinostat 0.021 | citarinostat 0.021 | silmitasertib -0.004 | [5] -0.015 | [6] 0.027

EXOSC9 isoform 2 (UniProt Q06265)
inactive: [1] -0.089 | [2] 0.025 | [3] 0.011 | [4] 0.02 | entinostat -0.074 | vorinostat -0.039 | citarinostat -0.002 | silmitasertib 0.125 | [5] 0.044 | [6] -0.052

EXOC2 (UniProt Q96KP1)
inactive: [1] 0.039 | [2] -0.084 | [3] -0.218 | [4] -0.024 | entinostat 0.052 | vorinostat -0.013 | citarinostat 0.105 | silmitasertib 0.035 | [5] 0.028 | [6] -0.102

EXOSC7 (UniProt Q15024)
inactive: [1] 0.018 | [2] -0.015 | [3] 0.023 | [4] 0.01 | entinostat -0.046 | vorinostat -0.043 | citarinostat 0.003 | silmitasertib 0.019 | [5] -0.004 | [6] -0.078

FAAP100 (UniProt Q0VG06)
inactive: [1] 0.009 | [2] 0.039 | [3] -0.076 | [4] -0.031 | entinostat -0.05 | vorinostat 0.048 | citarinostat -0.012 | silmitasertib -0.051 | [5] 0.197 | [6] -0.053

EZR (UniProt P15311)
inactive: [1] -0.018 | [2] -0.001 | [3] -0.006 | [4] -0.006 | entinostat -0.009 | vorinostat -0.002 | citarinostat 0.017 | silmitasertib -0.012 | [5] -0.055 | [6] 0.035

F11R (UniProt Q9Y624)
inactive: [1] -0.137 | [2] 0.046 | [3] 0.045 | [4] 0.021 | entinostat -0.075 | vorinostat -0.013 | citarinostat 0.013 | silmitasertib -0.025 | [5] -0.076 | [6] -0.059

ETFDH (UniProt Q16134)
inactive: [1] 0.026 | [2] -0.06 | [3] -0.069 | [4] -0.06 | entinostat -0.002 | vorinostat 0.017 | citarinostat 0.026 | silmitasertib -0.011 | [5] -0.081 | [6] -0.046

FAM20B (UniProt O75063)
inactive: [1] 0.053 | [2] 0.078 | [3] -0.127 | [4] 0.007 | entinostat 0.006 | vorinostat -0.025 | citarinostat 0.047 | silmitasertib -0.033 | [5] 0.046 | [6] -0.052
